# The inconclusive results got no clear call from the source; some entries with a clear call stand among them for comparison. For some assays here: A potency beside an inconclusive call is a rough fit, not a confirmed value. Active and inactive are the calls of the source. Calls follow the shape of the dose curve; as a rule, active = well fitted curve in the direction sought with a large enough effect; inconclusive = small, poorly fitted or top-dose-only effect, or another doubt; inactive = no such curve, though single readings can be large; an effect the other way counts as inactive or inconclusive.
# What was measured:
# [1] = Quantitative High-Throughput drug screen in 47 multiple myeloma cell lines against the NCATS MIPE library collection: MOLP8_DSMZ cell viability assay (AID 1918977); also: nearly all actives have a fitted effect of over 45% in size;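 as to viability (% of control): 100% = DMSO-only wells and 0% = media-only wells without cells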
# Procedure, shortened: (§1)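 Readout: median RLU from CellTiter-Glo after 5 min at room temperature. Preceding step was 48 h drug treatment of 500 cells/well at 37 °C, 5% CO2, with DMSO-only and media-only control wells.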
# [2] = Quantitative High-Throughput drug screen in 47 multiple myeloma cell lines against the NCATS MIPE library collection: NCIH929_DSMZ cell viability assay (AID 1918978); settings: NCI-H929 myeloma viability, CellTiter-Glo ATP, 48 h; viability, % of control: at 45.8 µM (top of the series); also: nearly all actives have a fitted effect of over 35% in size
# Procedure, shortened: as §1
# [3] = Quantitative High-Throughput drug screen in 47 multiple myeloma cell lines against the NCATS MIPE library collection: LP1_DSMZ cell viability assay (AID 1918982); also: nearly all actives have a fitted effect of over 35% in size
# Procedure, shortened: as §1
# [4] = Quantitative High-Throughput drug screen in 47 multiple myeloma cell lines against the NCATS MIPE library collection: KMS28PE_JCRB cell viability assay (AID 1918983); also: nearly all actives have a fitted effect of over 35% in size
# Procedure, shortened: as §1
# [5] = Quantitative High-Throughput drug screen in 47 multiple myeloma cell lines against the NCATS MIPE library collection: OCIMY7_PLB cell viability assay (AID 1918987); settings: OCI-MY7 myeloma viability, CellTiter-Glo ATP, 48 h; viability (% of DMSO): at 45.8 µM unless noted; also: nearly all actives have a fitted effect of over 65% in size
# Procedure, shortened: as §1
# [6] = Quantitative High-Throughput drug screen in 47 multiple myeloma cell lines against the NCATS MIPE library collection: OCIMY5_PLB cell viability assay (AID 1918988); settings: OCI-MY5 myeloma viability, ATP luminescence, 48 h; viability, % of control: at 45.8 µM; also: nearly all actives have a fitted effect of over 65% in size
# Procedure, shortened: as §1
# [7] = Quantitative High-Throughput drug screen in 47 multiple myeloma cell lines against the NCATS MIPE library collection: SKMM1_PLB cell viability assay (AID 1919863); settings: SKMM1 myeloma viability, CellTiter-Glo ATP, 48 h; viability: active compounds read low; also: nearly all actives have a fitted effect of over 35% in size
# Procedure, shortened: as §1
# [8] = Quantitative High-Throughput drug screen in 47 multiple myeloma cell lines against the NCATS MIPE library collection: U266_ATCC cell viability assay (AID 1919864); also: nearly all actives have a fitted effect of over 35% in size;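 as to viability (% of DMSO control): 0% = media-only wells without cells and 100% = DMSO-only wells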
# Procedure, shortened: as §1
# [9] = Quantitative High-Throughput drug screen in 47 multiple myeloma cell lines against the NCATS MIPE library collection: XG6_PLB cell viability assay (AID 1919865); settings: XG6 myeloma viability, CellTiter-Glo ATP luminescence, 48 h; viability (% of control): at 45.8 µM; also: nearly all actives have a fitted effect of over 40% in size
# Procedure, shortened: as §1
# [10] = Quantitative High-Throughput drug screen in 47 multiple myeloma cell lines against the NCATS MIPE library collection: XG1_PLB cell viability assay (AID 1919866); also: nearly all actives have a fitted effect of over 35% in size
# Procedure, shortened: as §1
# [11] = Quantitative High-Throughput drug screen in 47 multiple myeloma cell lines against the NCATS MIPE library collection: PE2_PLB cell viability assay (AID 1919869); settings: PE2_PLB myeloma cells viability, ATP luminescence, 48 h; viability (% of control): at 45.8 µM; also: nearly all actives have a fitted effect of over 35% in size;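 as to viability (% of control): 100% = DMSO-only wells and 0% = cell-free media-only wells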
# Procedure, shortened: as §1
# [12] = Quantitative High-Throughput drug screen in 47 multiple myeloma cell lines against the NCATS MIPE library collection: PCM6_Riken cell viability assay (AID 1919870); settings: CellTiter-Glo ATP, 48 h; viability (% of control): at 45.8 µM; also: nearly all actives have a fitted effect of over 30% in size
# Procedure, shortened: as §1
# [13] = Quantitative High-Throughput drug screen in 47 multiple myeloma cell lines against the NCATS MIPE library collection: OCIMY1_PLB cell viability assay (AID 1918979); also: nearly all actives have a fitted effect of over 35% in size
# Procedure, shortened: as §1
# [14] = Quantitative High-Throughput drug screen in 47 multiple myeloma cell lines against the NCATS MIPE library collection: MM1S_ATCC cell viability assay (AID 1918980); also: nearly all actives have a fitted effect of over 45% in size
# Procedure, shortened: as §1
# [15] = Quantitative High-Throughput drug screen in 47 multiple myeloma cell lines against the NCATS MIPE library collection: L363_DSMZ cell viability assay (AID 1918984); settings: L363 myeloma viability, CellTiter-Glo ATP luminescence, 48 h; viability (% of control): at 45.8 µM; also: nearly all actives have a fitted effect of over 40% in size
# Procedure, shortened: as §1
# [16] = Quantitative High-Throughput drug screen in 47 multiple myeloma cell lines against the NCATS MIPE library collection: KMS34_JCRB cell viability assay (AID 1918985); settings: KMS34 myeloma viability, CellTiter-Glo ATP luminescence, 48 h; viability, percent of control: at 45.8 µM; also: nearly all actives have a fitted effect of over 40% in size;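 as to viability, percent of control: 100% = DMSO-only wells and 0% = media-only wells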
# Procedure, shortened: as §1
# [17] = Quantitative High-Throughput drug screen in 47 multiple myeloma cell lines against the NCATS MIPE library collection: OPM1_PLB cell viability assay (AID 1918989); settings: CellTiter-Glo, 48 h; viability (% of control): at 45.8 µM; also: nearly all actives have a fitted effect of over 40% in size
# Procedure, shortened: as §1
# [18] = Quantitative High-Throughput drug screen in 47 multiple myeloma cell lines against the NCATS MIPE library collection: VP6_DJ cell viability assay (AID 1919867); settings: ATP luminescence, 48 h; viability (% of DMSO): at 45.8 µM; also: nearly all actives have a fitted effect of over 40% in size;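 as to viability (% of DMSO): 100% = DMSO-only wells and 0% = wells with media alone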
# Procedure, shortened: as §1
# [19] = Quantitative High-Throughput drug screen in 47 multiple myeloma cell lines against the NCATS MIPE library collection: UTMC2_PLB cell viability assay (AID 1919868); settings: CellTiter-Glo ATP luminescence, 48 h; viability (% of DMSO control): at 45.8 µM; also: nearly all actives have a fitted effect of over 55% in size;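 as to viability (% of DMSO control): 100% = DMSO-only wells and 0% = media-only wells without cells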
# Procedure, shortened: as §1
# Potency is read from the fitted curve at half-maximal effect.
compound,measurement,setting,value
Cc1cc(CS(=O)(=O)c2ccccc2)cc(OCc2ccc(CN3CCC[C@H]3CO)cc2)c1,Potency,[1],"inconclusive: 41800 nM [cytotoxic, partial curve, poor fit]"
same,Potency,[2],inactive
same,Potency,[3],"inconclusive: 11800 nM [cytotoxic, partial curve, poor fit]"
same,Potency,[4],"inconclusive: 20900 nM [cytotoxic, partial curve, poor fit]"
same,Potency,[5],"inconclusive: 7430 nM [rising, partial curve, poor fit]"
same,Potency,[6],"inconclusive: 10500 nM [cytotoxic, full curve, poor fit]"
same,Potency,[7],"inconclusive: 5260 nM [cytotoxic, full curve, poor fit]"
same,Potency,[8],"inconclusive: 16600 nM [cytotoxic, partial curve, poor fit]"
same,Potency,[9],"inconclusive: 7430 nM [cytotoxic, partial curve, poor fit]"
same,Potency,[10],"inconclusive: 9350 nM [cytotoxic, partial curve, poor fit]"
same,Potency,[11],"inconclusive: 14800 nM [cytotoxic, partial curve, poor fit]"
same,Potency,[12],"inconclusive: 3320 nM [cytotoxic, partial curve, poor fit]"
Oc1cccc(-c2nc(N3CCOCC3)c3oc4ncccc4c3n2)c1,Potency,[1],active: 15.2 nM
same,Potency,[13],"inconclusive: 108 nM [cytotoxic, full curve]"
same,Potency,[14],active: 67.9 nM
same,Potency,[3],"inconclusive: 13.6 nM [cytotoxic, full curve]"
same,Potency,[4],active: 76.2 nM
same,Potency,[15],"inconclusive: 171 nM [cytotoxic, full curve, poor fit]"
same,Potency,[16],"inconclusive: 85.5 nM [cytotoxic, full curve]"
same,viability (% of DMSO),[5],inconclusive: 0.812% [cytotoxic] [at 92.2 µM]
same,Potency,[17],active: 85.5 nM
same,Potency,[7],"inconclusive: 270 nM [cytotoxic, full curve]"
same,Potency,[10],"inconclusive: 54 nM [cytotoxic, full curve]"
same,Potency,[18],"inconclusive: 171 nM [cytotoxic, full curve]"
same,Potency,[19],active: 38.2 nM
same,Potency,[11],active: 85.5 nM
COc1cc(N2CCC(C(N)=O)CC2)ccc1Nc1nc(N)c(Cl)c(Nc2ccccc2S(=O)(=O)C(C)C)n1,Potency,[1],"inconclusive: 935 nM [cytotoxic, full curve, poor fit]"
same,Potency,[13],"inconclusive: 66.2 nM [cytotoxic, full curve]"
same,Potency,[14],active: 743 nM
same,Potency,[3],"inconclusive: 332 nM [cytotoxic, full curve]"
same,Potency,[5],active: 209 nM
same,Potency,[6],active: 935 nM
same,Potency,[7],"inconclusive: 935 nM [cytotoxic, full curve, poor fit]"
same,Potency,[8],"inconclusive: 1480 nM [cytotoxic, full curve]"
same,Potency,[18],active: 418 nM
OCCN1C[C@H](O)[C@@H](O)[C@H](O)[C@@H]1CO,Potency,[1],"inconclusive: 3.3 nM [rising, full curve, poor fit]"
same,Potency,[13],inconclusive: 1 nM
same,Potency,[14],"inconclusive: 41.8 nM [rising, full curve]"
same,Potency,[3],inactive
same,Potency,[4],"inconclusive: 148 nM [rising, full curve, poor fit]"
same,Potency,[5],inconclusive: 1 nM
same,Potency,[6],"inconclusive: 8.3 nM [rising, full curve, poor fit]"
same,viability,[7],inactive: 126%
same,Potency,[8],"inconclusive: 20.9 nM [rising, full curve, poor fit]"
same,Potency,[18],inactive
same,Potency,[19],inactive
same,Potency,[11],inactive
same,Potency,[12],"inconclusive: 37.2 nM [rising, full curve, poor fit]"
CC#C[C@]1(O)CC[C@H]2[C@@H]3CCC4=CC(=O)CCC4=C3[C@@H](c3ccc(N(C)C)cc3)C[C@@]21C,Potency,[1],active: 2350 nM
same,Potency,[2],active: 418 nM
same,Potency,[3],active: 2640 nM
same,Potency,[16],active: 1320 nM
same,Potency,[6],active: 833 nM
same,Potency,[9],active: 264 nM
CO[C@@H]1[C@@H](O)[C@H](O)[C@@H](n2c3c(Cl)cccc3c3c4c(c5c6cccc(Cl)c6[nH]c5c32)C(=O)NC4=O)O[C@@H]1CO,Potency,[1],active: 2350 nM
same,Potency,[2],active: 833 nM
same,Potency,[3],active: 6620 nM
same,Potency,[9],active: 74.3 nM
same,Potency,[19],active: 235 nM
same,Potency,[12],active: 1480 nM
C[C@@H]1C(=O)O[C@H]2CC34[C@H]5C[C@@H](C(C)(C)C)C36[C@H](OC(=O)[C@@H]6O)O[C@@]4(C(=O)O5)[C@]21O (some centres undefined),Potency,[1],inactive
same,Potency,[13],"inconclusive: 11800 nM [rising, single point]"
same,Potency,[14],"inconclusive: 9350 nM [cytotoxic, full curve, poor fit]"
same,Potency,[3],inconclusive: 1 nM [cytotoxic]
same,Potency,[15],"inconclusive: 37.2 nM [cytotoxic, full curve, poor fit]"
same,Potency,[16],inactive
same,Potency,[5],"inconclusive: 46.9 nM [cytotoxic, full curve, poor fit]"
same,Potency,[6],"inconclusive: 9350 nM [rising, partial curve]"
same,Potency,[17],"inconclusive: 2350 nM [cytotoxic, partial curve, poor fit]"
same,Potency,[7],"inconclusive: 296 nM [cytotoxic, full curve, poor fit]"
same,Potency,[8],inactive
same,Potency,[18],inactive
same,Potency,[19],inactive
same,Potency,[12],inconclusive: 1 nM [cytotoxic]

# Retrieved one by one from the entries so far, four records:
compound,measurement,setting,value
CC#C[C@]1(O)CC[C@H]2[C@@H]3CCC4=CC(=O)CCC4=C3[C@@H](c3ccc(N(C)C)cc3)C[C@@]21C,Potency,[1],active: 2350 nM
COc1cc(N2CCC(C(N)=O)CC2)ccc1Nc1nc(N)c(Cl)c(Nc2ccccc2S(=O)(=O)C(C)C)n1,Potency,[8],"inconclusive: 1480 nM [cytotoxic, full curve]"
Cc1cc(CS(=O)(=O)c2ccccc2)cc(OCc2ccc(CN3CCC[C@H]3CO)cc2)c1,Potency,[5],"inconclusive: 7430 nM [rising, partial curve, poor fit]"
same,Potency,[4],"inconclusive: 20900 nM [cytotoxic, partial curve, poor fit]"

# From PubChem BioAssay (NCATS)
